# Results as given in patent US5386011A (priority 1990, dated 1995).
# For part of these data: Some peptides are written in HELM: one residue between dots, names in brackets for other building blocks, links after the first $. [ ]: non-standard residue; d: D form. The star is where a group is joined. NMeF = CN[C@@H](Cc1ccccc1)C(=O)O; dCha = N[C@H](CC1CCCCC1)C(=O)O; Boc = CC(C)(C)OC(=O)*
# What was measured:
# [1] = general procedure: Boc solid-phase peptide synthesis; Boc-DArginine(N-guanidino-Tos)-Merrifield resin; conditions: for cyclisation yield: cyclisation step; for isolated mass / isolated yield: whole synthesis
# peptide synthesis = conditions: late stage modification step
substance,measurement,setting,value
(N-Methyl)Phenylalanyl-{(2S)-2-Amino-6-benzamidinylhexanoyl}-Prolyl-{(2R)-2-Amino-3-cyclohexylpropanoyl}-Phenylalanyl-DArginyl-OH,step yield,[1]; late stage modification step,26% yield
{(2R/S)-2-Amino-5-phenylpentanoyl}**-Lysyl-Prolyl-{(2R)-2-Amino-3-cyclohexylpropanoyl}-{(2S)-2-Amino-3-cyclohexylpropanoyl}-DArginyl**,cyclisation yield,[1],29%
(N-Methyl)Phenylalanyl-Lysyl-Prolyl-{(2R)-2-Amino-3-cyclohexylpropanoyl}-{(2S)-2-Amino-3-cyclohexylpropanoyl}-DArginyl-NHNH2,step yield,[1]; late stage modification step,67% yield
(N-Methyl)Phenylalanyl-{(2S)-2-Amino-6-acetamidinylhexanoyl}-Prolyl-{(2R)-2-Amino-3-cyclohexylpropanoyl}-Phenylalanyl-DArginyl-OH,isolated mass,[1]; scale ca 0.25 meq,131 mg
same,isolated yield,[1]; scale ca 0.25 meq,46% yield
(N-Methyl)Phenylalanyl-Lysyl-Prolyl-{(2R)-2-Amino-3-cyclohexylpropanoyl}-{(2S)-2-Amino-3-cyclohexylpropanoyl}-{(R) -Phenylglycinyl}-OH,step yield,[1]; coupling step,41% yield
H-Phenylalanyl-Lysyl(epsilon-N**)-Prolyl-{(2R)-2-Amino-3-cyclehexylpropanoyl}-{(2S)-2-Amino-3-cyclohexylpropanoyl}-DArginyl-{(2S)-2-Amino-3-cyclohexylpropanoyl}**,cyclisation yield,[1],5%
(N-Methyl)Phenylalanyl-Lysyl-Prolyl-{(2R)-2-Amino-3-cyclohexylpropanoyl}-{(2S)-2-Amino-3-cyclohexylpropanoyl}-DArginyl-NHBenzyl,isolated yield,[1]; scale of the general procedure 0.4-1.0 g resin,26%
"(N-Methyl)Phenylalanyl-{Lysyl(N-epsilon-[N-(1,3-Diaminopropyl) carbonyl])}-Prolyl-{(2R)-2-Amino-3-cyclohexylpropanoyl}-Phenylalanyl-DArginyl-OH",isolated mass,[1]; scale ca 0.25 meq,20 mg
same,isolated yield,[1]; scale ca 0.25 meq,7% yield
(N-Methyl)Phenylalanyl-Lysyl-Prolyl-{(2R)-2-Amino-3-cyclohexylpropanoyl}-{(2S)-2-Amino-3-cyclohexylpropanoyl}-DArginyl-NH2,step yield,[1]; late stage modification step,64% yield
PEPTIDE1{[MePhe].K.P.[D-Cha].F.[D-Phg]}$$$$V2.0,step yield,[1]; coupling step,38% yield
(N-Methyl)Phenylalanyl-{(2S)-2-Amino-6-(N^G' -phenylguanidinyl)-hexanoyl}-Prolyl-{(2R)-2-Amino-3-cyclohexylpropanoyl}-Phenylalanyl-DArginyl-OH,step yield,[1]; late stage modification step,0.1% yield
Boc-[NMeF]K(Boc)P[dCha]-OH,step yield,peptide synthesis,83% yield
Boc-[NMeF]K(Boc)P[dCha]F-OH,step yield,peptide synthesis,99% yield
